Laboratory results published in US5643872A (SmithKline Beecham Corporation, priority 1994, dated 1997).

Legend:
[1] = general procedure: Boc solid-phase peptide synthesis; benzhydrylamine (BHA), 4-methylbenzhydrylamine (MBHA), chloromethyl, hydroxymethyl or SASRIN resin; details: for cyclisation yield: cyclisation step
[2] = general procedure: Boc solid-phase peptide synthesis; BHA; details: whole synthesis, scale 1 mmol
[3] = general procedure: Boc solid-phase peptide synthesis; MeBHA; details: whole synthesis

| Substance | cyclisation yield [1] [%] | crude mass ([1]; whole synthesis) [mg] | further results |
| --- | --- | --- | --- |
| PEPTIDE1{G.[MeArg].G.D.S.E.[am]}$PEPTIDE1,PEPTIDE1,1:R1-6:R3$$$V2.0 |  |  | isolated mass ([1]; whole synthesis): 356.8 mg; crude mass [2]: 680 mg; crude yield [2]: 100% |
| PEPTIDE1{G.R.G.D.S.E.[am]}$PEPTIDE1,PEPTIDE1,1:R1-6:R3$$$V2.0 |  |  | isolated mass ([1]; whole synthesis): 137 mg; crude mass [2]: 566 mg; crude yield [2]: 94% |
| cyclo-(1,6)-Pro-Arg-Gly-Asp-Gly-D-Phe | 84 | 462 |  |
| PEPTIDE1{[ac].C.[MeArg].G.D.[Pcs(2R,3R)].[am]}$PEPTIDE1,PEPTIDE1,2:R3-6:R3$$$V2.0 |  |  | isolated mass ([3]; scale 0.5 mmol): 92 mg |
| PEPTIDE1{G.R.G.D.S.P}$PEPTIDE1,PEPTIDE1,1:R1-6:R2$$$V2.0 | 88 | 256 |  |
| PEPTIDE1{R.G.D.F.R.G.D.F}$PEPTIDE1,PEPTIDE1,1:R1-8:R2$$$V2.0 | 100 | 247 | isolated mass ([1]; whole synthesis): 26 mg |
| PEPTIDE1{P.R.G.D.[dF].P.R.G.D.[dF]}$PEPTIDE1,PEPTIDE1,1:R1-10:R2$$$V2.0 | 100 | 370 |  |
| cyclo-(1,6)-Gly-Pro-Arg-Gly-Asp-D-Pro | 42 | 280 |  |
| N^α Ac-cyclo-(S,S)-Cys-Arg-Gly-Asp-Ser-Arg-Gly-Asp-Ser-Pen-NH2 |  | 1000 | crude yield ([1]; whole synthesis, scale of the general procedure 1.0 mmol): 100% |
| PEPTIDE1{P.G.R.G.D.[dP]}$PEPTIDE1,PEPTIDE1,1:R1-6:R2$$$V2.0 | 31 | 156 |  |
| PEPTIDE1{[ac].C.R.G.D.S.R.G.D.S.C.[am]}$PEPTIDE1,PEPTIDE1,2:R3-11:R3$$$V2.0 |  |  | isolated mass ([3]; scale 1.0 mmol): 800 mg; isolated yield ([3]; scale 1.0 mmol): 80% |
| PEPTIDE1{[ac].C.R.G.D.S.[MeArg].G.D.S.C.[am]}$PEPTIDE1,PEPTIDE1,2:R3-11:R3$$$V2.0 |  |  | crude mass ([3]; scale 1.0 mmol): 409 mg |
| PEPTIDE1{[ac].C.[MeArg].G.D.S.R.G.D.S.C.[am]}$PEPTIDE1,PEPTIDE1,2:R3-11:R3$$$V2.0 |  |  | isolated mass ([3]; scale 1.0 mmol): 800 mg |
| cyclo-(1,5)-Ala-Arg-Gly-Asp-D-Ser | 67 | 208 |  |
| PEPTIDE1{[ac].C.[MeArg].G.D.[Pcs(2R,3S)].[am]}$PEPTIDE1,PEPTIDE1,2:R3-6:R3$$$V2.0 |  |  | isolated mass ([3]; scale 0.5 mmol): 80 mg |
| PEPTIDE1{[MeArg].G.D.F.R.G.D.F}$PEPTIDE1,PEPTIDE1,1:R1-8:R2$$$V2.0 | 95 | 406 |  |
| cyclo-(1,6)-Pro-Arg-Gly-Asp-Gly-D-Pro | 63 |  |  |
| PEPTIDE1{[dA].R.G.D.S}$PEPTIDE1,PEPTIDE1,1:R1-5:R2$$$V2.0 | 67 | 73 |  |

Strings that start with PEPTIDE1 are HELM notation: dots part the residues, brackets hold end groups and non-standard residues.
